These are yes or no findings as the source states them, for the method shown. Binding calls can cover weak binding; strength is not graded here.
Target: V62-CFH (recombinant human complement factor H, variant Val-62, Tyr-402, Glu-936) (human) (UniProt P08603)
Experiment: SPR; 0.6 uM CFH premixed with 1.2 uM PspCN and flowed over amine-coupled C3b or C3d; binding of PspCN to CFH is concluded from the enhanced response; both purified

Sequences of proteins named here, by UniProt entry; tags and fusion partners are left off. A change or cut given only in a name is not applied to a line headed by its entry. Residues count along the entry.
UniProt P08603, residues 19-1231: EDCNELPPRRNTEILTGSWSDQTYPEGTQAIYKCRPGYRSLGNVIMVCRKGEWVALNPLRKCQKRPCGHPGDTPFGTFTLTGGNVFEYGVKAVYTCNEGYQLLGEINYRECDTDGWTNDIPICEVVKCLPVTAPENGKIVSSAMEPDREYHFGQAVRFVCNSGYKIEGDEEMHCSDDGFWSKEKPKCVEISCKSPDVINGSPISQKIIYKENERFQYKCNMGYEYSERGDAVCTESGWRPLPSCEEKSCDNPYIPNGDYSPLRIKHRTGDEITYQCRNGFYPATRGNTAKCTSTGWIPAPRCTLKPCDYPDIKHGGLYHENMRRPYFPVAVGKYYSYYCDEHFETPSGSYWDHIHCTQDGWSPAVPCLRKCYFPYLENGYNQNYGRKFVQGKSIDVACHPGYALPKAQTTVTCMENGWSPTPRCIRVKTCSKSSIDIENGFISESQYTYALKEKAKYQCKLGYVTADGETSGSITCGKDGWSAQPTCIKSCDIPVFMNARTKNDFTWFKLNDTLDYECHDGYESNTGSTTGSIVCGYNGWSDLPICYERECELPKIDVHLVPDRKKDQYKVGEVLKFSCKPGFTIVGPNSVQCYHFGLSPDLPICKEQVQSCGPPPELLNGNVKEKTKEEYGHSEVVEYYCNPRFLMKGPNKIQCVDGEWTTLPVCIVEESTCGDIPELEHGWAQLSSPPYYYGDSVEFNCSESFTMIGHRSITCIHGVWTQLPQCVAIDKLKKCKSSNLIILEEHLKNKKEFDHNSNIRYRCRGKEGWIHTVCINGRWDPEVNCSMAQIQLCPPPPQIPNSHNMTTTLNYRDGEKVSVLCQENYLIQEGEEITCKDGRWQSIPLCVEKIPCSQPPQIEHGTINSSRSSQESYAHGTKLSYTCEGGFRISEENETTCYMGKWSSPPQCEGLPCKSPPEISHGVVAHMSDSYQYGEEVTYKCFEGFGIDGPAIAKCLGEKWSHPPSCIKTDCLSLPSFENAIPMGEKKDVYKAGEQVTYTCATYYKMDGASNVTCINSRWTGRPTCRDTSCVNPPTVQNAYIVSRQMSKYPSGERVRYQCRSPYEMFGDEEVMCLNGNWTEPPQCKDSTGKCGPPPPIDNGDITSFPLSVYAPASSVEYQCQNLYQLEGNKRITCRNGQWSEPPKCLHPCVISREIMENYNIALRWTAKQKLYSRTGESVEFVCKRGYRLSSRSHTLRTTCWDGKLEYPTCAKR

PspCN (S. pneumoniae choline-binding protein PspC, N-terminal domain) (from UniProt A0A0H2ZLS0) (domain or fragment)
binding: binds
